Experimental data: patent US9896474B2, “(3A,9B,10A,13A,14B,17A,20S,22E)-ergosta-5,7,22-trien-3-ol and methods of preparing and using the same” (priority 2014, dated 2018)

How the values were obtained:
H22 liver cancer model = assay: Antitumor experiment against H22 tumor bearing mice; type: in vivo; details: 10 days, x ± s
From the text: Antitumor Experiment of C310-6 Against H22 Tumor Bearing Mice
H22 tumor bearing mice were adopted to observe the effect of the anti-liver cancer of five classes of mixtures.
H22 tumor bearing mouse inoculated with the tumor for 8-13 days and in good condition was killed by dislocation. Body surface of the mouse was disinfected by alcohol. The tumors were separated from the mouse and placed in sterile petri dish containing normal saline in a sterile environment (super clean bench). The tumors were cut into small piece and transferred to a tissue homogenizer, the normal saline was added with a volume ratio of the tumor piece to the normal saline being 1:3, a resulting homogenate was put into a 50 mL sterile centrifuge tube. 0.2 mL of the homogenate was inoculated to right axilla of each C57BL/6 mouse by 1 mL syringe. The tumor cell suspension was prepared in the sterile environment (the super clean bench), and the serial operations from separation of the abdominal dropsy of the tumor to the tumor inoculation were accomplished in 60 min
(§1) Oral agent of C310-6: a certain weight of C310-6 sample was placed in a mortar, and Tween-80 having a volume of 2% of a certain volume of a solvent was added and fully ground. Thereafter, the normal saline was added and fully stirred to form a solution. Solutions having a concentration of the C310-6 sample of 24 mg/mL, 8 mg/mL, and 2.7 mg/mL were prepared.
(§2) Oral agent of CTX: CTX pill was removed from a film and a certain amount of the pill was placed in a mortar. A certain volume of normal saline was added, fully ground, and mixed to prepare a solution having a concentration of CTX to be 3.4 mg/mL.
(§3) 60 experimental mice were divided into 6 groups with each group having 10 mice, a half of the mice being female and another half of the mice being male. The groups are specifically as follows: 1) group administered with a low dose of C310-6 (27 mg/kg), 2) group administered with middle dose of C310-6 (80 mg/kg), 3) group administered with high dose of C310-6 (240 mg/kg), 4) group administered with CTX, 5) model group, and 6) blank control group. The above groups, except the model group and the blank control group, are administered with 0.3 mL of the drugs once a day after the injection of the tumor suspension, and the administration was lasted for 10 days. The model group and the blank control group are administered orally with equal volume of aqua solutions containing 2 v. % of Tween-80 for 10 days.
(§4) The weight and food intake of the mice were weighed and recorded every day, and a net weight of each mouse after tumor removal was calculated at the last time.
(§5) The separated tumor tissue was weighed, and the inhibition rate on the tumor growth was calculated according to the following equation: […]

Lewis lung cancer model = assay: Anti-Lewis tumor experiment (Lewis lung cancer bearing mouse); type: in vivo; details: Lewis mice, 10 days, x ± s
From the text: The purpose of the experiment was adopting the Lewis tumor bearing mouse model to observe the antitumor effect of C310-6.
Tumor bearing mouse inoculated with the tumor for 8-13 days and in good condition was killed by dislocation. Body surface of the mouse was disinfected by alcohol. The tumors were separated from the mouse and placed in sterile petri dish containing normal saline in a sterile environment (super clean bench). The tumors were cut into small piece and transferred to a tissue homogenizer, the normal saline was added with a volume ratio of the tumor piece to the normal saline being 1:3, a resulting homogenate was put into a 50 mL sterile centrifuge tube. 0.2 mL of the homogenate was inoculated to right axilla of each KM mouse by 1 mL syringe. The tumor cell suspension was prepared in the sterile environment (the super clean bench), and the serial operations from the tumor separation to the tumor inoculation were accomplished in 60 min
as §1, §2
as §3, with “0.2” for “0.3”
as §4, §5

Row | SMILES | Liver weight (g) (H22 liver cancer model; 27 mg/kg oral once a day) | Liver weight (g) (H22 liver cancer model; 80 mg/kg oral once a day) | Liver weight (H22 liver cancer model; 240 mg/kg oral once a day) [g] | Liver weight (Lewis lung cancer model; 27 mg/kg oral once a day) [g] | Liver weight (Lewis lung cancer model; 80 mg/kg oral once a day) [g] | Liver weight (Lewis lung cancer model; 240 mg/kg oral once a day) [g] | Liver weight (H22 liver cancer model; 20 mg/kg oral once a day) [g] | Liver weight (Lewis lung cancer model; 20 mg/kg oral once a day) [g]
1 | CC(C)[C@@H](C)/C=C/[C@H](C)[C@@H]1CC[C@@H]2C3=CC=C4C[C@H](O)CC[C@@]4(C)[C@@H]3CC[C@]21C [C310-6, (3α,9β,10α,13α,14β,17α,20S,22E)-ergosta-5,7,22-trien-3-ol] | 1.67 ± 0.53∘ g | 1.87 ± 0.52∘∘ g | 1.57 ± 0.30 | 0.12 ± 0.02 | 0.12 ± 0.03 | 0.13 ± 0.02 | – | –
2 | O=P1(N(CCCl)CCCl)NCCCO1 (centres unmarked) [CTX, cyclophosphamide, reference compound] | – | – | – | – | – | – | 1.26 ± 0.22 | 0.12 ± 0.02
